Results reported in the supplement of paper PMC7661543.
The effect of the compound repeats well; differences between the knockouts mostly do not.

System: BT-20
Test: relative cell number vs DMSO control (72 h) (% of DMSO); higher = less growth inhibition (more cells)
Experimental: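 QMAP-Seq: a pool of 5 breast cancer cell lines (ZR-75-1, SKBR3, HCC-38, MDA-MB-231, BT-20), each carrying 12 doxycycline-inducible Cas9 sgRNA perturbations (11 knockouts plus non-targeting sgNT), was treated with compounds for 72 h at four 10-fold doses (10 nM-10 uM or 1 nM-1 uM range). Barcodes were amplified and sequenced, and cell number was interpolated from 293T spike-in standard curves. The result is expressed as % of the median of DMSO wells. Two biological replicates.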

CC(C)(C#N)c1ccc(N2C(=O)OCc3cnc4ccc(-c5cnc6ccccc6c5)cc4c32)cc1
Conditions | relative cell number
sgRNA knockout: sgATF3, 10 nM | 101
sgRNA knockout: sgATF3, 100 nM | 96.9
sgRNA knockout: sgATF3, 1000 nM | 87
sgRNA knockout: sgATF3, 10000 nM | 49.8
sgRNA knockout: sgATF4, 10 nM | 107
sgRNA knockout: sgATF4, 100 nM | 104
sgRNA knockout: sgATF4, 1000 nM | 84.4
sgRNA knockout: sgATF4, 10000 nM | 51.9
sgRNA knockout: sgATF6, 10 nM | 98.3
sgRNA knockout: sgATF6, 100 nM | 97.3
sgRNA knockout: sgATF6, 1000 nM | 86.4
sgRNA knockout: sgATF6, 10000 nM | 51.9
sgRNA knockout: sgATG7, 10 nM | 91.7
sgRNA knockout: sgATG7, 100 nM | 103
sgRNA knockout: sgATG7, 1000 nM | 102
sgRNA knockout: sgATG7, 10000 nM | 52.3
sgRNA knockout: sgERN1, 10 nM | 108
sgRNA knockout: sgERN1, 100 nM | 102
sgRNA knockout: sgERN1, 1000 nM | 83
sgRNA knockout: sgERN1, 10000 nM | 48.8
sgRNA knockout: sgHSF1, 10 nM | 97.4
sgRNA knockout: sgHSF1, 100 nM | 105
sgRNA knockout: sgHSF1, 1000 nM | 86.6
sgRNA knockout: sgHSF1, 10000 nM | 53.5
sgRNA knockout: sgHSF2, 10 nM | 97
sgRNA knockout: sgHSF2, 100 nM | 83.6
sgRNA knockout: sgHSF2, 1000 nM | 80.04
sgRNA knockout: sgHSF2, 10000 nM | 44.6
sgRNA knockout: sgKEAP1, 10 nM | 105
sgRNA knockout: sgKEAP1, 100 nM | 86.9
sgRNA knockout: sgKEAP1, 1000 nM | 74.7
sgRNA knockout: sgKEAP1, 10000 nM | 46.2
sgRNA knockout: sgNFE2L2, 10 nM | 99.1
sgRNA knockout: sgNFE2L2, 100 nM | 100
sgRNA knockout: sgNFE2L2, 1000 nM | 94.83
sgRNA knockout: sgNFE2L2, 10000 nM | 45.7
sgRNA knockout: sgSLC35F2, 10 nM | 102
sgRNA knockout: sgSLC35F2, 100 nM | 112
sgRNA knockout: sgSLC35F2, 1000 nM | 73.4
sgRNA knockout: sgSLC35F2, 10000 nM | 50.1
sgRNA knockout: sgXBP1, 10 nM | 108
sgRNA knockout: sgXBP1, 100 nM | 95
sgRNA knockout: sgXBP1, 1000 nM | 91.1
sgRNA knockout: sgXBP1, 10000 nM | 53

COc1cc2nc(N3CCCN(C)CC3)nc(NC3CCN(Cc4ccccc4)CC3)c2cc1OC
Conditions | relative cell number
sgRNA knockout: sgATF3, 10 nM | 108
sgRNA knockout: sgATF3, 100 nM | 90.1
sgRNA knockout: sgATF3, 1000 nM | 72.2
sgRNA knockout: sgATF3, 10000 nM | 7.18
sgRNA knockout: sgATF4, 10 nM | 99.8
sgRNA knockout: sgATF4, 100 nM | 99.1
sgRNA knockout: sgATF4, 1000 nM | 104
sgRNA knockout: sgATF4, 10000 nM | 8.88
sgRNA knockout: sgATF6, 10 nM | 101
sgRNA knockout: sgATF6, 100 nM | 87.1
sgRNA knockout: sgATF6, 1000 nM | 82.3
sgRNA knockout: sgATF6, 10000 nM | 4.61
sgRNA knockout: sgATG7, 10 nM | 105
sgRNA knockout: sgATG7, 100 nM | 99.4
sgRNA knockout: sgATG7, 1000 nM | 83.5
sgRNA knockout: sgATG7, 10000 nM | 8.35
sgRNA knockout: sgERN1, 10 nM | 94.7
sgRNA knockout: sgERN1, 100 nM | 83
sgRNA knockout: sgERN1, 1000 nM | 82.9
sgRNA knockout: sgERN1, 10000 nM | 5.77
sgRNA knockout: sgHSF1, 10 nM | 102
sgRNA knockout: sgHSF1, 100 nM | 100.9
sgRNA knockout: sgHSF1, 1000 nM | 92
sgRNA knockout: sgHSF1, 10000 nM | 9.4
sgRNA knockout: sgHSF2, 10 nM | 81.5
sgRNA knockout: sgHSF2, 100 nM | 78
sgRNA knockout: sgHSF2, 1000 nM | 89.1
sgRNA knockout: sgHSF2, 10000 nM | 5.95
sgRNA knockout: sgKEAP1, 10 nM | 109
sgRNA knockout: sgKEAP1, 100 nM | 88.7
sgRNA knockout: sgKEAP1, 1000 nM | 92.6
sgRNA knockout: sgKEAP1, 10000 nM | 9.75
sgRNA knockout: sgNFE2L2, 10 nM | 88.6
sgRNA knockout: sgNFE2L2, 100 nM | 112
sgRNA knockout: sgNFE2L2, 1000 nM | 102
sgRNA knockout: sgNFE2L2, 10000 nM | 8.62
sgRNA knockout: sgSLC35F2, 10 nM | 91.3
sgRNA knockout: sgSLC35F2, 100 nM | 98.2
sgRNA knockout: sgSLC35F2, 1000 nM | 82.1
sgRNA knockout: sgSLC35F2, 10000 nM | 11.6
sgRNA knockout: sgXBP1, 10 nM | 99
sgRNA knockout: sgXBP1, 100 nM | 100.8
sgRNA knockout: sgXBP1, 1000 nM | 90.5
sgRNA knockout: sgXBP1, 10000 nM | 10.6
